Source: US7001748

T1: acyl-ACP4(4) adduct 4b ((2R,3S)-diketide on ACP4(4)), Q03132
T1 chain: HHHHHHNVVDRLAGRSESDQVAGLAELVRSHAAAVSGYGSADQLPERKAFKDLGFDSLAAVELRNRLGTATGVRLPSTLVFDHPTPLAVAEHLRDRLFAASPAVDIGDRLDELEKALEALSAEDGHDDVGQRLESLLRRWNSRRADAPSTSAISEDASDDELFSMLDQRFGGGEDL

T2: acyl-ACP4(4) adduct 4c ((2S,3S)-diketide on ACP4(4)), Q03132
T2 chain: T1 chain

T3: acyl-ACP4(4) adduct 4d ((2R,3R)-diketide on ACP4(4)), Q03132
T3 chain: T1 chain

T4: acyl-ACP4(4) adduct 4a ((2S,3R)-diketide on ACP4(4)), Q03132
T4 chain: T1 chain

B1: (5)M6+TE (N-ERL-M6+TE; plasmid pRSG54) (protein)
chain: MSGDNGMTEEKLRRYLKRTVTELDSVTARLREVEHRAGEAIVGMACRFPGGVHNPGELWEFIVGGGDAVTEMPTDRGWDLDALFDPDPQRHGTSYSRHGAFLDGAADFDAAFFGISPREALAMDPQQRQVLETTWELFENAGIDPHSVRGSDTGVFLGAAYQGYGQDAVVPEDSEGYLLTGNSSAVVSGRVAYVLGLEGPAVTVDTACSSSLVALHSACGSLRDGDCGLAVAGGVSVMAGPEVFTEFSRQGGLAVDGRCKAFSAEADGFGLPEGVAVVQLQRLSDGPAEGGRQVLGVVAGSAINQDGATNGLAAPSGVAQQRVIRKAWARAGITGADVAVVEAHGTGTRLGDPVEASALLATYGKSRGSSGPVLLGSVKSNIGHAQAAAGVAGVIKVVLGLNRGLVPPMLCRGERSPLIEWSSGGVELAEAVSPWPPAADGVRRAGVSAFGVSGTNAHVIIAEPPEPEPLPEPGPVGVLAAANSVPVLLSARTETALAAQARLLESAVDDSVPLTALASALATGRAHLPRRAALLAGDHEQLRGQLRAVAEGVAAPGATTGTASAGGVVFVFPGQGAQWEGMARGLLSVPVFAESIAECDAVLSEVAGFSASEVLEQRPDAPSLERVDVVQPVLFSVMVSLARLWGACGVSPSAVIGHSQGEIAAAVVAGVLSLEDGVRVVALRAKALRALAGKGGMVSLAAPGERARALIAPWEDRISVAAVNSPSSVVVSGDPEALAELVARCEDEGVRAKTLPVDYASHSRHVEEIRETILADLDGISARRAAIPLYSTLHGERRDMGPRYWYDNLRSQVRFDEAVSAQSPDGHATFVEMSPHPVLTAAVQEIAADAVAIGSLHRDTAEEHLIAELARAHVHGVAVDWRNVFPAAPPVALPNYPFEPQRYWLAPEVSDQLADSRYRVDWRPLATTPVDLEGGFLVHGSAPESLTSAVEKAGGVVPVASADREALAAALREVPGEVAGVLSVHTGAANALALHQSLGEAGVRAPLWLVTSRAVALGESEPVDPEQAMVWGLGRVMGLETPERWGGLVDLPAEPAPGDGEAFVACLGADGHEDQVAIRDHARYGRRLVRAPLGTRESSWEPAGTALVTGGTGALGGHVARHLARCGVEDLVLVSRRGVDAPAAAELEAELVALGPKTTITACDVADREQLSKLLEELRGQGRPVRTVVHTAGVPESRPLHEIGELESVCAAKVTGARLLDELCPDAETFVLFSSGAGVWGSANLGAYSAANAYLDALAHRRRAEGRAATSVAWGAWAGEGMATGDLEGLTRRGLRPMAPDRAIRALHQALDNGDTCVSIADVDWEAFAVGFTAARPRPLLDELVTPAVGAVPAVQAAPAREMTSQELLEFTHSHVAAILGHSSPDAVGQDQPFTELGFDSLTAVGLRNQLQQATGLALPATLVFEHPTVRRLADHIGQQLDSGTPAREASSALRDGYRQAGVSGRVRSYLDLLAGLSDFREHFDGSDGFSLDLVDMADGPGEVTVICCAGTAAISGPHEFTRLAGALRGIAPVRAVPQPGYEEGEPLPSSMAAVAAVQADAVIRTQGDKPFVVAGHSAGALMAYALATELLDRGHPPRGVVLIDVYPPGHQDAMNAWLEELTATLFDRETVRMDDTRLTALGAYDRLTGQWRPRETGLPTLLVSAGEPMGPWPDDSWKPTWPFEHDTVAVPGDHFTMVQEHADAIARHIDAWLGGGNSHHHHHH
B2: (5)M5+TE (M5+TE; plasmid pRSG46) (protein)
chain: SGDNGMTEEKLRRYLKRTVTELDSVTARLREVEHRAGEPIAIVGMACRFPGDVDSPESFWEFVSGGGDAIAEAPADRGWEPDPDARLGGMLAAAGDFDAGFFGISPREALAMDPQQRIMLEISWEALERAGHDPVSLRGSATGVFTGVGTVDYGPRPDEAPDEVLGYVGTGTASSVASGRVAYCLGLEGPAMTVDTACSSGLTALHLAMESLRRDECGLALAGGVTVMSSPGAFTEFRSQGGLAADGRCKPFSKAADGFGLAEGAGVLVLQRLSAARREGRPVLAVLAGSAVNQDGASNGLTAPSGPAQQRVIRRALENAGVRAGDVDYVEAHGTGTRLGDPIEVHALLSTYGAERDPDDPLWIGSVKSNIGHTQAAAGVAGVMKAVLALRHGEMPRTLHFDEPSPQIEWDLGAVSVVSQARSWPAGERPRRAGVSSFGISGTNAHVIVEEAPEADEPEPAPDSGPVPLVLSGRDEQAMRAQAGRLADHLAPEPRNSLRDTGFTLATRASAMEHRAVVVGDRDEALAGLRAVADRRIADRTATGQGPNSPRRVAMVFPGQGAQWQGMARDLLRESQVFADSIRDCERALAPHVDWSLTDLLSGARPLDRVDVVQPALFAVMVSLAALWRSHGVEPAAVVGHSQGEIAAAHVAGALTLEDAAKLVAVRSRVLRRLGGQGGMASFGLGTEQAAERIGRFAGALSIASVNGPRSVVVVAGESGPLDELIAECEAEAHKARRIPVDYASHSPQVESLREELLTELAGISPVSADVALYSTTTGQPIDTATMDTAYWYANLREQVRFQDATRQLAEAGFDAFVEVSPHPVLTVGIEATLDSALPADAGACVVGTLRRDRGGLADFHTALGEAYAQGVEVDWSPAFADARPVELPVYPFQRYWLPIPTGGRARDEDDDWRYQVVWREAEWESASLAGRVLLVTGPGVPSELSDAIRSGLEQSGATVLTCDVESRSTIGTALEAADTDALSTVGVAAVPHGEAVDPSLDALALVQALGAAGVEAPLWVLTRNAVQVADGELVDPAQAMVGGLGRVVGIEQPGRWGGLVDLVDADAASIRSLAAVLADPRGEEQVAIRADGIKVARLVPAPARARTHPLEPLAGTVLVTGGTGGIGAHLARWLARSGAEHLVLLGRRGADAPGASELREELTALGTGVTIAACDVADRARLEAVLAAEAAAEGRTVSAVMHAAGVSTSTPLDDLTEAEFTEIADVKVRGTVNLDELCPDLDAFVLFSSNAGVWGSPGLASYAAANAFLDGFARAARSEGAPVTSIAWGLWAGQNMAGDEGGEYLRSQGLRAMDPDRAVEELHITLDHGQTSVSVVDMDRRRFVELFTAARHRPLFDEIAGARAEARQSEEGPALAQRLAALLCDGREREHLAHLIRAEVAAVLGHGDDAAIDRDRAFRDLGFDSMTAVDLRNRLAAVTGVREAATVVFDHPTITRLADHYLERLICCAGTAAISGPHEFTRLAGALRGIAPVRAVPQPGYEEGEPLPSSMAAVAAVQADAVIRTQGDKPFVVAGHSAGALMAYALATELLDRGHPPRGVVLIDVYPPGHQDAMNAWLEELTATLFDRETVRMDDTRLTALGAYDRLTGQWRPRETGLPTLLVSAGEPMGPWPDDSWKPTWPFEHDTVAVPGDHFTMVQEHADAIARHIDAWHHHHHH

How the values were obtained:
[1] = biological target: T1, acyl-ACP4(4) adduct 4b …
[2] = biological target: T2, acyl-ACP4(4) adduct 4c …
[3] = biological target: T3, acyl-ACP4(4) adduct 4d …
[4] = biological target: T4, acyl-ACP4(4) adduct 4a …
[5] = biological target: acyl-ACP4(4) adducts (4), member not specified

| Protein | diketide incorporation from acyl-ACP (triketide lactone formation) [1] | diketide incorporation from acyl-ACP (triketide lactone formation) [2] | diketide incorporation from acyl-ACP (triketide lactone formation) [3] | diketide incorporation from acyl-ACP (triketide lactone formation) [4] | conversion of the acyl-ACP into triketide lactone in 1 h (20 µM 4 and 1 µM (5)M5+TE) [5] | increase of the elongation rate constant (kcat) with 4b against NAC thioester 2b [1] |
| --- | --- | --- | --- | --- | --- | --- |
| B1 | Both 4a and 4b were accepted and extended by all three modules | 4c and 4d were also substrates for the three modules | 4c and 4d were also substrates for the three modules | Both 4a and 4b were accepted and extended by all three modules |  |  |
| B2 | Both 4a and 4b were accepted and extended by all three modules | 4c and 4d were also substrates for the three modules | 4c and 4d were also substrates for the three modules | Both 4a and 4b were accepted and extended by all three modules | 70% of the acyl-ACP was converted into triketide lactone in 1 h | the elongation rate constant (kcat) increases at least 25-fold |
